Laboratory results reported in the supplement of paper PMC10331698.
± gives the standard deviation of the averaged measurements. Most entries show no effect beyond the scatter of the controls.

Experiments:
Experiment in all cases: level (log10 ratio to DMSO vehicle control); higher = higher biomarker level / cell amount than vehicle control
[1] = compound: C=C(C)C(=O)OCCC(F)(F)C(F)(F)C(F)(F)C(F)(F)C(F)(F)C(F)(F)F [6:2 Fluorotelomer methacrylate] (in DMSO); conditions: 2200 nM
Method: (§1)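 BioMAP Diversity Plus panel of 12 human primary cell co-culture systems (3C, 4H, LPS, SAg, BT, BF4T, BE3C, CASM3C, HDF3CGF, KF3CT, MyoF, Mphg). Compounds were added 1 h before stimulation and left for 24 h (MyoF 48 h; BT 72 h for soluble read-outs or 6 d for IgG). Biomarkers were read by ELISA, cytotoxicity by SRB, PBMC viability and proliferation by Alamar Blue. Each well value was divided by the mean of 8 DMSO control wells on the same plate and log10 transformed; duplicate blinded samples were tested at 4 concentrations.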

[2] = compound: CNS(=O)(=O)C(F)(F)C(F)(F)C(F)(F)C(F)(F)C(F)(F)C(F)(F)C(F)(F)C(F)(F)F [N-Methylperfluorooctanesulfonamide] (in DMSO); conditions: 2200 nM
Method: as §1

[3] = compound: FC(F)(F)C(F)(F)C(F)(F)C(F)(F)CCI [1H,1H,2H,2H-Perfluorohexyl iodide] (in DMSO); conditions: 2200 nM
Method: as §1

[4] = compound: FC(F)(F)C(F)(F)CNCC(F)(F)C(F)(F)F [Bis(1H,1H-perfluoropropyl)amine] (in DMSO); conditions: 2200 nM
Method: as §1

[5] = compound: FC(F)(F)COC(OCC(F)(F)F)OCC(F)(F)F [tris(Trifluoroethoxy)methane] (in DMSO); conditions: 2200 nM
Method: as §1

Hexafluoroglutaric acid = compound: O=C(O)C(F)(F)C(F)(F)C(F)(F)C(=O)O [Hexafluoroglutaric acid] (in DMSO)
Method: as §1

Perfluorohexanoic acid = compound: O=C(O)C(F)(F)C(F)(F)C(F)(F)C(F)(F)C(F)(F)F [Perfluorohexanoic acid] (in DMSO)
Method: as §1

[6] = compound: O=C(O)C(F)(F)C(F)(F)C(F)(F)OC(F)(C(F)(F)F)C(F)(F)F [Perfluoro-4-isopropoxybutanoic acid] (in DMSO); conditions: 2200 nM
Method: as §1

[7] = compound: O=C(O)C(F)(OC(F)(F)C(F)(F)C(F)(F)F)C(F)(F)F [Ammonium perfluoro-2-methyl-3-oxahexanoate] (in Water)
Method: as §1

[8] = compound: O=C(O)C(F)(OC(F)(F)C(F)(OC(F)(F)C(F)(OC(F)(F)C(F)(F)C(F)(F)F)C(F)(F)F)C(F)(F)F)C(F)(F)F [Perfluoro-(2,5,8-trimethyl-3,6,9-trioxadodecanoic)acid] (in DMSO); conditions: 370 nM
Method: as §1

[9] = compound: O=C(O)CCC(F)(F)C(F)(F)C(F)(F)F [3:3 Fluorotelomer carboxylic acid] (in DMSO); conditions: 2200 nM
Method: as §1

[10] = compound: O=S(=O)(O)C(F)(F)C(F)(F)C(F)(F)C(F)(F)F [Perfluorobutanesulfonic acid] (in DMSO)
Method: as §1

[11] = compound: OCC(F)(F)C(F)(F)C(F)(F)C(F)(F)C(F)(F)C(F)(F)CO [1H,1H,8H,8H-Perfluorooctane-1,8-diol] (in DMSO); conditions: 2200 nM
Method: as §1

[12] = compound: OCC(F)(F)C(F)(F)C(F)(F)C(F)(F)C(F)(F)C(F)(F)F [6:1 Fluorotelomer alcohol] (in DMSO); conditions: 2200 nM
Method: as §1

[13] = compound: OCC(F)(F)C(F)(F)C(F)(F)C(F)F [1H,1H,5H-Perfluoropentanol] (in DMSO); conditions: 2200 nM
Method: as §1

[14] = compound: OCC(F)(F)OC(F)(F)C(F)(F)OC(F)(F)CO [1H,1H,8H,8H-Perfluoro-3,6-dioxaoctane-1,8-diol] (in DMSO); conditions: 2200 nM
Method: as §1

[15] = compound: OCCCC(F)(F)C(F)(F)C(F)(F)C(F)(F)C(F)(F)C(F)(F)C(F)(F)C(F)(F)F [3-(Perfluorooctyl)propanol] (in DMSO); conditions: 2200 nM
Method: as §1

Row | Test System | level (log10) [1] | level (log10) [2] | level (log10) [3] | level (log10) [4] | level (log10) [5] | level (log10) (Hexafluoroglutaric acid; 2200 nM) | level (log10) (Hexafluoroglutaric acid; 6700 nM) | level (log10) (Hexafluoroglutaric acid; 20000 nM) | level (log10) (Hexafluoroglutaric acid; 60000 nM) | level (log10) (Perfluorohexanoic acid; 2200 nM) | level (log10) (Perfluorohexanoic acid; 6700 nM) | level (log10) (Perfluorohexanoic acid; 20000 nM) | level (log10) (Perfluorohexanoic acid; 60000 nM) | level (log10) [6] | level (log10) ([7]; 2200 nM) | level (log10) ([7]; 6700 nM) | level (log10) ([7]; 20000 nM) | level (log10) ([7]; 60000 nM) | level (log10) [8] | level (log10) [9] | level (log10) ([10]; 2200 nM) | level (log10) ([10]; 6700 nM) | level (log10) ([10]; 20000 nM) | level (log10) ([10]; 60000 nM) | level (log10) [11] | level (log10) [12] | level (log10) [13] | level (log10) [14] | level (log10) [15]
1 | BT:B cell Proliferation | -0.008 ± 0.0028 | 0.0015 ± 0.033 | 0.0065 ± 0.0021 | 0.0145 ± 0.021 | -0.025 ± 0.04 | -0.0195 ± 0.005 | -0.005 ± 0.0042 | -0.0035 ± 0.0078 | 0.011 ± 0.017 | 0.0065 ± 0.05 | -0.047 ± 0.048 | -0.0035 ± 0.042 | 0.0275 ± 0.063 | 0.003 ± 0.038 | -0.237 ± 0.045 | -0.239 ± 0.0085 | -0.256 ± 0.011 | -0.248 ± 0.0035 | -0.0085 ± 0.0064 | 0.011 ± 0.03 | 0.0085 ± 0.0021 | -0.0025 ± 0.016 | 0.0085 ± 0.016 | 0.038 ± 0.0014 | 0.0075 ± 0.019 | 0.0235 ± 0.0035 | 0.029 ± 0.05 | -0.015 ± 0.023 | 0.012 ± 0.0028
2 | BT:PBMC Cytotoxicity | 0.012 | 0.007 ± 0.0071 | -0.002 ± 0.017 | 0.0285 ± 0.00071 | 0.004 ± 0.027 | 0.0125 ± 0.03 | 0.019 ± 0.027 | -0.017 ± 0.0071 | 0.005 ± 0.014 | 0.005 ± 0.042 | -0.024 ± 0.028 | -0.0405 ± 0.028 | 0.004 ± 0.0057 | -0.0145 ± 0.005 | -0.0955 ± 0.025 | -0.083 ± 0.016 | -0.095 ± 0.0099 | -0.0905 ± 0.023 | 0.009 ± 0.04 | 0.0085 ± 0.016 | 0.033 ± 0.045 | 0.03 ± 0.044 | 0.039 ± 0.027 | 0.057 ± 0.0057 | 0.0285 ± 0.0064 | 0.0315 ± 0.0021 | -0.0115 ± 0.023 | 0.013 ± 0.011 | 0.017 ± 0.025
3 | BT:Secreted IgG | 0.034 ± 0.014 | 0.009 ± 0.014 | -0.0255 ± 0.025 | 0.025 ± 0.013 | 0.028 ± 0.047 | -0.029 ± 0.027 | -0.026 ± 0.04 | 0.055 ± 0.013 | 0.019 ± 0.048 | 0.0015 ± 0.019 | 0.0085 ± 0.00071 | 0.0155 ± 0.03 | -0.023 ± 0.061 | 0.015 ± 0.023 | -0.141 ± 0.016 | -0.12 ± 0.07 | -0.113 ± 0.059 | -0.156 | 0.0105 ± 0.069 | -0.0055 ± 0.00071 | 0.002 ± 0.054 | 0.0005 ± 0.00071 | -0.0055 ± 0.023 | -0.016 ± 0.052 | 0.0225 ± 0.036 | -0.001 ± 0.059 | 0.044 ± 0.02 | 0.035 ± 0.0085 | 0.025 ± 0.0085
4 | BT:sIL-2 | 0.0365 ± 0.037 | 0.0065 ± 0.047 | 0.0715 ± 0.069 | 0.025 ± 0.076 | 0.0515 ± 0.081 | 0.0245 ± 0.1 | -0.006 ± 0.11 | 0.0205 ± 0.039 | 0.061 ± 0.013 | -0.0275 ± 0.059 | -0.0225 ± 0.0064 | 0.0345 ± 0.098 | 0.0275 ± 0.074 | 0.015 ± 0.078 | -0.115 ± 0.068 | -0.093 ± 0.0099 | -0.0525 ± 0.015 | -0.124 ± 0.028 | 0.0165 ± 0.084 | 0.005 ± 0.061 | -0.0355 ± 0.04 | -0.0155 ± 0.079 | -0.059 ± 0.044 | -0.025 ± 0.04 | -0.025 ± 0.018 | -0.0535 ± 0.12 | 0.0915 ± 0.0035 | 0.0295 ± 0.026 | -0.017 ± 0.092
5 | BT:sIL-6 | 0.0025 ± 0.047 | 0.0035 ± 0.03 | 0.053 ± 0.024 | 0.0245 ± 0.011 | -0.0005 ± 0.039 | 0.023 ± 0.02 | -0.0105 ± 0.11 | 0.0275 ± 0.021 | -0.0155 ± 0.088 | -0.0255 ± 0.052 | -0.0375 ± 0.079 | 0.013 ± 0.062 | -0.037 ± 0.021 | 0.027 ± 0.025 | -0.0995 ± 0.083 | -0.0915 ± 0.0035 | -0.0905 ± 0.021 | -0.151 ± 0.014 | -0.0385 ± 0.079 | 0.017 ± 0.016 | -0.0185 ± 0.0021 | -0.035 ± 0.061 | 0.004 ± 0.067 | 0.012 ± 0.02 | -0.0075 ± 0.021 | -0.044 ± 0.062 | 0.009 ± 0.055 | 0.003 ± 0.11 | 0.0475 ± 0.06
